Measurements reported in patent US20100137275A1 (IPSEN PHARMA S.A.S., priority 2007, published 2010).
pIC50: −log10 of the molar value. Like-named read-outs stand apart in the source and are kept apart here. Some entries share one result that the patent states for a list of compounds.

Tests used:
[1] = tested on: DU145 (human prostate cancer cells); assay: Anti-proliferative activity on DU-145 cell line (WST1 colorimetric test); format: cell-based; details: 96 hours treatment
Procedure: (§1) By way of an example, the effect of treating two human cell lines Mia-Paca2 and DU145 with the compounds of the examples described hereinbefore will be studied. The cell lines DU145 (human prostate cancer cells) and Mia-PaCa2 (human pancreas cancer cells) were obtained from the American Tissue Culture Collection (Rockville, Md., USA). A 96-well plate was inoculated on day 0 with cells placed in 80 μl of Dulbecco's modified Eagle's medium (Gibco-Brl, Cergy-Pontoise, France) with 10% heat-inactivated foetal calf serum (Gibco-Brl, Cergy-Pontoise, France), 50000 units/1 of penicillin and 50 mg/l of streptomycin (Gibco-Brl, Cergy-Pontoise, France), and 2 mM of glutamine (Gibco-Brl, Cergy-Pontoise, France). The cells were treated on day 1 with increasing concentrations of each test compound up to 10 μM for 96 hours. At the end of this period, cell proliferation is quantified by means of a colorimetric test based on cleavage of the tetrazolium salt WST1 by the mitochondrial dehydrogenases in the viable cells, resulting in formation of formazan (Boehringer Mannheim, Meylan, France). These tests are performed in duplicate with 8 determinations per concentration tested. For each compound to be tested, the values within the linear part of the sigmoid curve were subjected to linear regression analysis and used to estimate the IC50 inhibitory concentration. The products are solubilised in dimethylsulfoxide (DMSO) at a concentration of 10^−2 M and used in culture with a final DMSO concentration of 0.1%.

[2] = tested on: Mia-PaCa2 (human pancreas cancer cells); assay: Anti-proliferative activity on Mia-Paca2 cell line (WST1 colorimetric test); format: cell-based; details: 96 hours treatment
Procedure: as §1

[3] = biological target: T1, purified recombinant Cdc25-C enzyme (MBP-Cdc25C protein) (Homo sapiens, UniProt P30307); assay: Phosphatase activity of the purified recombinant Cdc25C enzyme (OMFP dephosphorylation, fluorescence); format: biochemical; details: OMFP 500 μM, 4 hours at 30° C.
T1 construct: made in house
T1 sequence (P30307 1-473): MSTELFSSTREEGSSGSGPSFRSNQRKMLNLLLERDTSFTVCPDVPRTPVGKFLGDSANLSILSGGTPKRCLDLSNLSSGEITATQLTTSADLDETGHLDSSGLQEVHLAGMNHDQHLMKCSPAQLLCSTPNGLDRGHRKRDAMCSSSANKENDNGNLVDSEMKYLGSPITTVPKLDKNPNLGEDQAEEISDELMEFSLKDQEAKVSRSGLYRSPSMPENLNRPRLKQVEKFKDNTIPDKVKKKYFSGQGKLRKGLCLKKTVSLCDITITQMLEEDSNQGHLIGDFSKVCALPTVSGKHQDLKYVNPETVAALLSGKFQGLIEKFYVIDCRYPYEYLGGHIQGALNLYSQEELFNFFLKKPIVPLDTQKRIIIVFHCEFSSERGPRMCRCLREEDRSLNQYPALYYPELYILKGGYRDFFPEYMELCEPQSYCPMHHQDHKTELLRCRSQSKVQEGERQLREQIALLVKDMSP
Outline: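 MBP-Cdc25C fusion protein in 50 mM Tris-HCl pH 8.2, 50 mM NaCl, 1 mM DTT, 20% glycerol; reaction started with 500 μM OMFP (final). Compounds tested at decreasing concentrations from 40 μM; 4 h at 30 °C, OMF fluorescence read at 475 nm. IC50 from three independent experiments by linear regression over the linear part of the sigmoid.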

How did the pIC50 ([1]; listed as example 77, read-out: IC50 on the proliferation of the DU-145 cell line) turn out when `CN(CCNC(=S)Nc1ccc(C#N)cc1)CCNc1cc(N2CCCC2)nc(N2CCCC2)n1` [Example 77, N-(4-cyanophenyl)-N′-{2-[{2-[(2,6-dipyrrolidin-1-ylpyrimidin-4-yl)amino]ethyl}(methyl)amino]ethyl}thiourea] was run?
The pIC50 was no less than 5.30.

And the pIC50 ([1]; read-out: IC50 on the proliferation of the DU-145 cell line)?
Its pIC50 is no less than 6.00.

And the pIC50 ([2]; listed as example 77, read-out: IC50 on proliferation of the Mia-Paca2 cell line)?
Its pIC50 is no less than 5.30.

And the pIC50 ([2]; read-out: IC50 on proliferation of the Mia-Paca2 cell line)?
Its pIC50 is no less than 6.00.

And the pIC50 [3]?
Its pIC50 is no less than 5.00.
